Source: patent EP4790069A1 (Kyoto University, dated 2026)
Results are given in words; binding and its absence hold for the method and conditions named. Some binding calls cover weakened binding; strength is not graded here.

Legend:
feline CD153 (feline) [1] = biological target: T1, feline CD153 (feline); assay: flow cytometry on cells expressing CD153
T1 sequence: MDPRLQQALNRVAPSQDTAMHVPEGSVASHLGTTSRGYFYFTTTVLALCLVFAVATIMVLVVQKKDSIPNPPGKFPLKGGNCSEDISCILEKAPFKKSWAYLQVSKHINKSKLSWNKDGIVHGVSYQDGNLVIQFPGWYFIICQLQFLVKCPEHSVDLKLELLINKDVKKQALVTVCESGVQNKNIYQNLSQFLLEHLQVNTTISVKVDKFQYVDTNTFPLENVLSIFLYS

canine CD153 (canine) [2] = biological target: T2, canine CD153 (canine) (UniProt E2R8I1); assay: flow cytometry on cells expressing CD153
T2 sequence: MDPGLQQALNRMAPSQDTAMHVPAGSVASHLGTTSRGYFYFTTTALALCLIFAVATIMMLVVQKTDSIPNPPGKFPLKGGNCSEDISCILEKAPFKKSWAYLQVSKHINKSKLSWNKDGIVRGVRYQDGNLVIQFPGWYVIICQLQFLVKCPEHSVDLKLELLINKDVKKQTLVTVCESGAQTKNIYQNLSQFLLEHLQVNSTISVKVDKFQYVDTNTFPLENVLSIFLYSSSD

canine CD153 (canine) [3] = biological target: T2, canine CD153 (canine); assay: flow cytometry on 293T cells transfected with canine CD153 (AcGFP1-positive fraction)
feline CD153 (feline) [4] = biological target: T1, feline CD153 (feline); assay: flow cytometry on 293T cells transfected with feline CD153 (AcGFP1-positive fraction)

binding (feline CD153 (feline) [1]): binds
binding (canine CD153 (canine) [2]): binds
binding (canine CD153 (canine) [3]): binds
binding (feline CD153 (feline) [4]): binds
B1: anti-human CD153 monoclonal antibody 2H7-9 (antibody, V domains shown)
VH: RVQLQQSGAELVRPGTSVKISCKASGYAFTNYWLGWVKQRPGHGLEWIGDIYPGNYNSYSNEKFKGKATLTADESSSTAYMQLSSLTSEDSAVYFCARIYGNYWIFDVWGAGTTVTVSS
VL: QIVLTQSPAIMSASPGEKVTMTCSASSSVNYMHWFQQKPGTSPKLWIYSTSDLASGVPARFSGSGSGTSYSLTISRMEAEDAATYYCQQRSSYPLTFGAGTKLELK
notes: Mouse hybridoma antibody (CD153-KO B6 mouse), purified with Protein A and detected with anti-mouse IgG
